# The list shows a part of the results. These are further read-outs of the screen, such as a control signal, another cell line or another target. No call is given for them.
# Assay: modulators of CD8 T cell-vesicle binding, confirmation, cherry-picked primary hits, two concentrations (AID 2810);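 also: lower values mean blocking of vesicle binding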;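 as to percent response (vesicle binding): ratio of mean FL2 vesicle stain of CD8+ cells to that row's control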
# Settings: 2C CD8+ T cell-vesicle binding, flow cytometry; for double positive events: CD8+/vesicle+ events
# [1] = at 15.4 µM, stronger effect = lower value
SMILES,double positive events (at 7.7 µM) [%],double positive events [1] [%],percent response (vesicle binding) (at 7.7 µM) [%]
O=C1CCCC/C=C\C[C@H](CC(=O)N(CCO)Cc2ccccc2)C(=O)N[C@@H](c2ccccc2)CO1,11,27.5,121
CC(C)C(=O)Nc1ccc(NC(=O)c2ccco2)cn1,9,24.2,357
Oc1ccc(Cl)cc1C=NCCc1ccccc1,32.5,9.6,103
O=C(NNc1nc(-c2ccccc2)c2cc(Br)ccc2n1)c1ccc(S(=O)(=O)N2CCOCC2)cc1,16.4,31.8,218
O=C(Cc1c(Cl)cccc1Cl)Nc1cccc(S(=O)(=O)N2CCOCC2)c1,24.9,18.9,337
Cc1ccc(NC(=O)NNC(=O)C2CCN(Cc3ccc(F)cc3Cl)CC2)cc1,28.7,28.7,319
CN(C)CCNc1oc(-c2ccccc2Cl)nc1S(=O)(=O)c1ccccc1,17.2,29.5,569
CCc1noc(C)c1C(=O)Oc1ccc(N(C)S(=O)(=O)c2ccccc2)cc1,12.4,32.1,162
COc1ccccc1NC(=O)CSc1nnc(Cc2cccn2C)n1-c1ccc(F)cc1,13.9,16.3,273
CCOC(=O)c1[nH]c(C)c(C(=O)N(CC)CC)c1C,9.3,10.8,175
CCCCN1C(=O)NC(NC(=O)C2CC2)(C(F)(F)F)C1=O (configuration not stated),3.3,14.6,71.3
CC1CCC(NC(=O)CN2C(=O)NC3(CCCCCC3)C2=O)CC1 (configuration not stated),12.3,31.7,303
COc1ccc(CCNS(=O)(=O)c2ccc(S(=O)(=O)N3CCCC3)cc2)cc1OC,15,23,183
COc1ccc(OC)c(NC(=O)CCN2CCCCC2)c1,29.4,27.5,442
Cc1nnc(Cl)c2nn(-c3ccccc3F)c(C)c12,10.2,7.4,150
CCSc1nnc(NC(=O)CSc2sc3c(O)cc(=O)[nH]c3c2C#N)s1,8.5,31.7,210
O=C(NCCOc1ccccc1Cl)c1cccc2c1C(=O)c1ccc(Cl)cc1S2(=O)=O,16.7,15.2,193
Cc1cccc(N2C(=O)CCC2=O)c1,11.4,17.2,170
Cc1cccc(-n2ncc3c(N4CCCC4)ncnc32)c1,44.5,15.3,619
CCC1(c2ccccc2)NC(=O)N(CC(=O)Nc2cc(Cl)ccc2N2CCN(C)CC2)C1=O (configuration not stated),11.6,18.5,475
COc1ccc(S(=O)(=O)N(C)C2(C)CCS(=O)(=O)C2)cc1OC (configuration not stated),10.4,17.4,423

SMILES,double positive events (at 7.7 µM) [%],double positive events [1] [%],percent response (vesicle binding) (at 7.7 µM) [%]
NS(=O)(=O)c1ccc(NC(=O)NC2CCCCC2)cc1,11.8,43.8,232
COc1ccc(SC[C@H](C)CN2CC[C@H](C(C)(C)C)CCC2=O)cc1,24.2,21.8,379
COc1ccccc1N1CCN(/N=C\c2sccc2C)CC1,17.9,14.6,213
Cc1ccc(C(=O)OC(C(=O)Nc2ccc(Cl)cc2C(F)(F)F)c2ccccc2)cc1 (configuration not stated),35,9.3,418
O=C(NNC(=O)c1ccccc1[N+](=O)[O-])c1ccco1,29.4,17.4,235
O=C(CN1C(=O)NC2(CCCCCC2)C1=O)N1CCN(c2ccc(F)cc2)CC1,16.5,16.9,232
Cc1ccc(C(=O)NC(=S)Nn2cnnc2)cc1,18.9,29.3,472
Cn1nccc1C(=O)Nc1ccn(C23CC4CC(CC(C4)C2)C3)n1,33.3,14.4,297
COc1ccc([N+](=O)[O-])cc1NC(=O)CCC(=O)c1cccs1,21.7,29.1,238
CCOc1cc(NC(=S)Nc2ccc(Cl)cc2)c(OCC)cc1NC(C)=O,14.6,21.4,150
O=C(COC(=O)CNC(=O)C1CCCCC1)Nc1ccccc1,7.5,12.7,307
CCN(CC)c1ccc(NC(=O)C2=CC=CN3CCS(=O)(=O)N=C23)cc1,11.7,13.1,108
NC(=O)Nc1ccccc1C(=O)NCCc1ccccc1,40.9,34.1,358
CCCCCOC(=O)Nc1ccc(S(=O)(=O)Nn2cnnc2)cc1,36.5,17.4,315
Cc1ccc(O)c([C@H](CCN(C(C)C)C(C)C)c2ccccc2)c1,14.3,9.3,247
C=CCC1(CC=C)CCCN1C(=O)C1CCC(=O)N(CCc2ccccc2)C1 (configuration not stated),10.4,23.6,200
COc1ccc(OCC(=O)NNC(=O)C(=O)N2CCCC2)cc1,24.8,9.2,499
O=C(Nc1ccccc1Cl)Oc1ccc(Cl)cc1Cl,23.6,11.4,337
CCOC(=O)N1CCN(C(=O)c2ccc(CS(=O)Cc3ccc(C)cc3)o2)CC1 (configuration not stated),10.3,8.1,156
CC(=O)N1CCC(=NNC(=O)c2cccs2)CC1,14.7,32.8,107
CNC(=S)Nc1cccc(C(=O)OC)c1,31.2,12.8,453

SMILES,double positive events (at 7.7 µM) [%],double positive events [1] [%],percent response (vesicle binding) (at 7.7 µM) [%]
CN(C)S(=O)(=O)N1CCN(S(=O)(=O)N(C)C)CC1,22.4,30.2,311
Cc1ccc(CNC(=O)C(=O)NCC2OCCN2C(=O)c2cccs2)cc1 (configuration not stated),12.2,11.1,444
COc1ccccc1CCNC(=O)C(=O)Nc1cc2c3c(c1)C(C)C(=O)N3CCC2 (configuration not stated),10.6,15.6,152
CCOC(=O)NC(=S)Nc1ccc(C(C)(C)C)cc1,10.8,9,388
CCCCNc1c(-c2ccc(OC)c(SC3CCCCC3)c2)nc2ccc(C)cn12,44.4,15.9,
CC(C)(C)OC(=O)NCc1ccc(CNC(=O)c2nc[nH]c2C(=O)NCc2ccccc2)cc1,14.4,6.2,401
COc1ccccc1NC(=O)COC(=O)c1cc(C)nc2ccccc12,20.3,17.6,123
CCC1CCCCN1CCCNC(=O)CS(=O)Cc1nc(-c2ccc(OC)c(OC)c2)oc1C (configuration not stated),8.2,17.1,446
O=C(NN1CCOCC1)c1cccc2ccccc12,16.2,33.9,95.8
S=C(NCCc1ccc(Cl)cc1)NC1CCCCC1,13.8,34,537
COC(=O)c1ccc(COc2ccc(-c3nnn(CC(N)=O)n3)cc2)cc1,31,25.4,258
COc1ccc(NC(=O)C(OC(=O)c2ccc([N+](=O)[O-])o2)c2ccccc2)cc1Cl (configuration not stated),9.1,29.2,116
CCNS(=O)(=O)c1ccc(NC(=O)c2cc(C(F)(F)F)nn2C)cc1,19.9,24.9,259
Cc1cc(C)c2cc(C#N)c(SCC(=O)NCC3CCCO3)nc2c1 (configuration not stated),20.9,23.3,911
CNC(=O)Cc1nc2ccccc2n1CC(=O)Nc1cc(C)cc(C)c1,10,8,151
CC(C)(C)OC(=O)N1CCN(C(=O)c2nc[nH]c2C(=O)N2CCN(c3ccccc3)CC2)CC1,9.7,37.3,95
N/C(Cc1ccc([N+](=O)[O-])cc1)=N\OC(=O)c1ccccc1Br,11,20.3,453
O=C(Nc1ccccc1F)C1CCCN(S(=O)(=O)c2cccc3cccnc23)C1 (configuration not stated),12,4.2,550
COC(=O)CN(c1ccc(C)cc1)S(=O)(=O)c1c(C)[nH]c(=O)[nH]c1=O,17.3,14.4,207
COc1ccc2cc3c(N)nn(C(=O)c4ccccc4[N+](=O)[O-])c3nc2c1,25.1,12,292
N#C/C(=C\c1cccnc1)C(=O)Nc1cccc(Cl)c1,7.8,22.3,288

SMILES,double positive events (at 7.7 µM) [%],double positive events [1] [%],percent response (vesicle binding) (at 7.7 µM) [%]
CC(C)COC(=O)n1c(=O)oc2cc(S(=O)(=O)N3CCCCC3)ccc21,14.5,16.5,372
CCOc1cc(C(=O)Nc2ccccc2N2CCOCC2)ccc1OCC(=O)N1CCOCC1,33.3,13.4,180
CCOC(=O)c1[nH]c(C)c(C(=O)N2CCOCC2)c1C,12.8,18.2,251
Cc1ccc(NC(=O)c2ccccc2OCc2c(C)noc2C)cc1S(=O)(=O)N(C)C,22.5,22.8,269
CCc1ccc(C(=O)COC(=O)CNC(=O)Cc2ccccc2)cc1,20.9,17.3,191
Cc1nn(C)c(C)c1NC(=O)COc1ccc(Cl)cc1,16,17.1,193
C[C@H](CO)N1C[C@H](C)[C@H](CN(C)S(=O)(=O)c2cn(C)cn2)Oc2ccc(NC(=O)Nc3ccc(C(F)(F)F)cc3)cc2CC1=O,9.6,16,312
O=C(NCc1ccc2c(c1)OCO2)C1CCCN1C(=O)Nc1cccc(Cl)c1 (configuration not stated),12,18.3,190
O=C(NN1C(=O)C2C3C=CC(O3)C2C1=O)c1cccc(O)c1 (configuration not stated),14.5,26.8,263
O=C(c1ccc(COc2ccc(F)cc2)o1)n1cc(Br)cn1,26.8,22.7,154
CCOC(=O)Cc1csc(NC(=O)CSc2nnc(C(C)C)n2CC)n1,20.5,14.3,162
CN(Cc1ccc(Cl)cc1)C(=O)COC(=O)CSc1ccc([N+](=O)[O-])cc1,6.9,10.7,214
Cn1c2ccccc2c2cc(/C=C(\NC(=O)c3ccccc3)C(=O)NCC(=O)O)ccc21,16.5,31.2,306
O=C(NC(Cc1ccccc1)C(=O)O)/C(=C\c1ccco1)NC(=O)c1ccccc1Br (configuration not stated),8.2,6.9,161
CC(NC(=O)CN(C)S(=O)(=O)c1ccc(F)cc1)C1CC2CCC1C2 (configuration not stated),12.1,28.6,139
COc1ccc(NC(=O)CSCC(=O)Nc2cccc(S(=O)(=O)N3CCCCCC3)c2)cc1,11.1,19.3,179
C=CCn1c(NCCOC)nc2c1c(=O)n(C)c(=O)n2C,14.9,26.1,204
COc1ccc(C2(C(=O)Nc3ccc(OC)cc3OC)CCCC2)cc1,15.5,15.2,457

# From PubChem BioAssay AID2810 (NMMLSC, 2010)
